Patent publication US9377466B2, “Compounds and methods” (Modpro AB, priority 2010, dated 2016)
Like-named read-outs stand apart in the source and are kept apart here. At least one structure is not confirmed: it was looked up by name or label, or the drawing left a doubt. Side chains are listed from the residue outwards. * marks the point of attachment. Benzoyl(4-SO2NH2) = NS(=O)(=O)c1ccc(C(=O)*)cc1; Acridin9yl = c1ccc2c(*)c3ccccc3nc2c1; X1 = COc1ccc2cc(C(=O)*)c(=O)oc2c1; Ahx = NCCCCCC(=O)O

The chains behind the UniProt entries cited, without tags or fusion partners. Residues count along the entry.
UniProt P22303, 32-614: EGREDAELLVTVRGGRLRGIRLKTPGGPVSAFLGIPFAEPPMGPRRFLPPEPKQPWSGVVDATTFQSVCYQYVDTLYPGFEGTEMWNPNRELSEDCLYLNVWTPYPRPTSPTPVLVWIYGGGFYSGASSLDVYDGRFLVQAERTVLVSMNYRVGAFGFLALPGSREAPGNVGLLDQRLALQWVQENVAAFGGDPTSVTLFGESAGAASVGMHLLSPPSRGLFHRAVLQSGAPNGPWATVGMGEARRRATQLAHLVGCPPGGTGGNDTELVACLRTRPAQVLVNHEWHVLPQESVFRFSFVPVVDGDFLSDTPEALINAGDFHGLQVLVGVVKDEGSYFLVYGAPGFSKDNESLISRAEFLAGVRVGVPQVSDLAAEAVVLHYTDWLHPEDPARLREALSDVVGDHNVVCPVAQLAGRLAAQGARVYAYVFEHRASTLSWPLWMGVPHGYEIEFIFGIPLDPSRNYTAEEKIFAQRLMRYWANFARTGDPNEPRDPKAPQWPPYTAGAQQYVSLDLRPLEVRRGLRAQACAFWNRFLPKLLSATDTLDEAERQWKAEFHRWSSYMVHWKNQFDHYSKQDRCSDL

Tests used:
HCAII = biological target: T1, HCAII (Homo sapiens, UniProt P00918); test: SPR biosensor analysis, immobilized HCAII; assay type: binding
T1 construct: purchased Sigma
Procedure: The sixteen polypeptide conjugates were also characterized by SPR biosensor analysis (Biacore®, GE Healthcare), using a Biacore® 2000 instrument, Biacore® CM-5 chip and HBS-EP buffer pH 7.4 (Biacore®, GE Healthcare) with addition of 1% DMSO for the interaction studies. Peptide solutions were prepared by dilution in buffer from 20 μM stock solutions in DMSO. HCAII was immobilized on the chip using standard EDC/NHS coupling in Acetate buffer pH 5.5. The binders were allowed to flow over the chip at 7 concentrations in the range from 1 nM to 500 nM and the interactions were evaluated using a 1:1 binding model (BiaEvaluation).
HCAI and HCAII were immobilized in different flowcells on a CM-5 (Biacore) chip using standard EDC/NHS coupling in Acetate buffer at pH 5.5.
SPR measurements were performed on a Biacore® 2000 instrument, with the proteins immobilized on a Biacore® CM-5 sensor chips (GE Healthcare). All interaction studies were performed in Biacore® HSB-EP buffer with the addition of 1% (v/v) DMSO. HCAII (Sigma, lyophilized powder) was dissolved in Acetate buffer pH 5.5 to a 2 mg/mL solution. HCAII were conjugated to the surface by EDC/NHS coupling reactions in Acetate buffer pH 5.5. Solutions of the polypeptide binders were prepared in HBS-EP buffer from stock solutions of 20 μM in DMSO and allowed to flow over the surface at 20 μL/min, with blank injections after every series. […]

[1] = biological target: T2, human Acetylcholine esterase, hAChE (Homo sapiens, UniProt P22303); test: Fluorescence screening (three-step titration) of polypeptide conjugates with hAChE; assay type: binding; conditions: 500 nM binder, 500 and 1000 nM hAChE, 50 mM sodium phosphate pH 7.0; assumes more than 90% complexed; read-out: dissociation constant, Kd, estimated from screening
T2 construct: purchased Sigma Aldrich

Row | Substance | Kd (HCAII; 1:1 interaction model, 1% DMSO, read-out: HCAII Kd) [nM] | Kd (HCAII; Table 2, read-out: dissociation constant for HCAII) [nM] | Kd [1] [nM]
1 | Ac-NAADLEAK([Ahx-Benzoyl(4-SO2NH2)])IRHLAEK(X1)LAARGPVDAAQLAEQLARRFEAFARAG-NH2 (C-terminus assumed) [3-C15L8-B] | 60 | 60 | 
2 | Ac-NAADLEARIK(X1)HLRERLK([Ahx-Ahx-Acridin9yl])ARGPRDAAQLAEQLARAFERFARAG-NH2 (C-terminus assumed) [4-C10L17-Ac] |  |  | ≤ 10
